The nature of data set [1]: In-solution digest of plasma, quantitative MS/MS (relative protein composition). Particulars: original plasma, no fibrils. Also noted: species or system human.
Data set [2] in a line: In-solution digest of CSF, quantitative MS/MS (relative protein composition). More on the design: species or system human; key to Identification status: CSF: *: Identified, but not quantified; —: Not identified in any of the samples. The following applies: original CSF; for Relative composition of CSF proteins: CSF: no fibrils.

This note sets out measurements from publication PMC6405930, “Conservation of the Amyloid Interactome Across Diverse Fibrillar Structures” (Scientific Reports, 2019).

B1: C4b-binding protein β chain: plasma protein bound to fibrils (protein, UniProt P20851 18-252, looked up)
C4b-binding protein beta chain: SDAEHCPELPPVDNSIFVAKEVEGQILGTYVCIKGYHLVGKKTLFCNASKEWDNTTTECRLGHCPDPVLVNGEFSSSGPVNVSDKITFMCNDHYILKGSNRSQCLEDHTWAPPFPICKSRDCDPPGNPVHGYFEGNNFTLGSTISYYCEDRYYLVGVQEQQCVDGEWSSALPVCKLIQEAPKPECEKALLAFQESKNLCEAMENFMQQLKESGMTMEELKYSLELKKAELKAKLL
Turning to B1, the “Relative composition of plasma proteins: Plasma” value (“Relative composition … Plasma” for short) in data set [1] was 0.0 ± 0.0 % of total protein.

B2: Ig α-1 chain C region: plasma/CSF protein bound to fibrils (protein, UniProt P01876 1-398, looked up)
Immunoglobulin heavy constant …: ASPTSPKVFPLSLCSTQPDGNVVIACLVQGFFPQEPLSVTWSESGQGVTARNFPPSQDASGDLYTTSSQLTLPATQCLAGKSVTCHVKHYTNPSQDVTVPCPVPSTPPTPSPSTPPTPSPSCCHPRLSLHRPALEDLLLGSEANLTCTLTGLRDASGVTFTWTPSSGKSAVQGPPERDLCGCYSVSSVLPGCAEPWNHGKTFTCTAAYPESKTPLTATLSKSGNTFRPEVHLLPPPSEELALNELVTLTCLARGFSPKDVLVRWLQGSQELPREKYLTWASRQEPSQGTTTFAVTSILRVAAEDWKKGDTFSCMVGHEALPLAFTQKTIDRLADWQMPPPYVVLDLPQETLEEETPGANLWPTTITFLTLFLLSLFYSTALTVTSVRGPSGNREGPQY
On to B2, for which, in data set [1], the “Relative composition … Plasma” value is 3.2 ± 0.1 % of total protein. Also, the “Relative composition of CSF proteins: CSF” value (shortened to “Relative composition … CSF”) in data set [2] was 1.9 ± 0.1 % of total protein.

B3: Inter-α-trypsin inhibitor heavy chain H2: plasma protein bound to fibrils (protein, UniProt P19823 55-702, looked up)
Inter-alpha-trypsin inhibitor …: SLPGESEEMMEEVDQVTLYSYKVQSTITSRMATTMIQSKVVNNSPQPQNVVFDVQIPKGAFISNFSMTVDGKTFRSSIKEKTVGRALYAQARAKGKTAGLVRSSALDMENFRTEVNVLPGAKVQFELHYQEVKWRKLGSYEHRIYLQPGRLAKHLEVDVWVIEPQGLRFLHVPDTFEGHFDGVPVISKGQQKAHVSFKPTVAQQRICPNCRETAVDGELVVLYDVKREEKAGELEVFNGYFVHFFAPDNLDPIPKNILFVIDVSGSMWGVKMKQTVEAMKTILDDLRAEDHFSVIDFNQNIRTWRNDLISATKTQVADAKRYIEKIQPSGGTNINEALLRAIFILNEANNLGLLDPNSVSLIILVSDGDPTVGELKLSKIQKNVKENIQDNISLFSLGMGFDVDYDFLKRLSNENHGIAQRIYGNQDTSSQLKKFYNQVSTPLLRNVQFNYPHTSVTDVTQNNFHNYFGGSEIVVAGKFDPAKLDQIESVITATSANTQLVLETLAQMDDLQDFLSKDKHADPDFTRKLWAYLTINQLLAERSLAPTAAAKRRITRSILQMSLDHHIVTPLTSLVIENEAGDERMLADAPPQDPSCCSGALYYGSKVVPDSTPSWANPSPTPVISMLAQGSQVLESTPPPHVMRVEND
Take B3: in data set [1], the “Relative composition … Plasma” value is recorded as 0.2 ± 0.0 % of total protein.

B4: Apolipoprotein A-IV: plasma/CSF protein bound to fibrils (protein, UniProt P06727 21-396, looked up)
Apolipoprotein A-IV: EVSADQVATVMWDYFSQLSNNAKEAVEHLQKSELTQQLNALFQDKLGEVNTYAGDLQKKLVPFATELHERLAKDSEKLKEEIGKELEELRARLLPHANEVSQKIGDNLRELQQRLEPYADQLRTQVSTQAEQLRRQLTPYAQRMERVLRENADSLQASLRPHADELKAKIDQNVEELKGRLTPYADEFKVKIDQTVEELRRSLAPYAQDTQEKLNHQLEGLTFQMKKNAEELKARISASAEELRQRLAPLAEDVRGNLRGNTEGLQKSLAELGGHLDQQVEEFRRRVEPYGENFNKALVQQMEQLRQKLGPHAGDVEGHLSFLEKDLRDKVNSFFSTFKEKESQDKTLSLPELEQQQEQQQEQQQEQVQMLAPLES
In the case of B4, in data set [1], the “Relative composition … Plasma” value is 0.2 ± 0.0 % of total protein. In addition, the “Relative composition … CSF” value in data set [2] was 0.0 ± 0.0 % of total protein.

B5: Ig γ -2 chain C region: plasma/CSF protein bound to fibrils (protein, UniProt P01859 1-395, looked up)
Immunoglobulin heavy constant …: ASTKGPSVFPLAPCSRSTSESTAALGCLVKDYFPEPVTVSWNSGALTSGVHTFPAVLQSSGLYSLSSVVTVPSSNFGTQTYTCNVDHKPSNTKVDKTVERKCCVECPPCPAPPVAGPSVFLFPPKPKDTLMISRTPEVTCVVVDVSHEDPEVQFNWYVDGVEVHNAKTKPREEQFNSTFRVVSVLTVVHQDWLNGKEYKCKVSNKGLPAPIEKTISKTKGQPREPQVYTLPPSREEMTKNQVSLTCLVKGFYPSDISVEWESNGQPENNYKTTPPMLDSDGSFFLYSKLTVDKSRWQQGNVFSCSVMHEALHNHYTQKSLSLSPELQLEESCAEAQDGELDGLWTTITIFITLFLLSVCYSATITFFKVKWIFSSVVDLKQTIVPDYRNMIRQGA
Consider B5, for which the “Relative composition … Plasma” value in data set [1] was 6.0 ± 0.1 % of total protein. In addition, the “Relative composition … CSF” value in data set [2] is 3.9 ± 0.1 % of total protein.

B6: Histidine-rich glycoprotein (protein, UniProt P04196 19-525, looked up)
Histidine-rich glycoprotein: VSPTDCSAVEPEAEKALDLINKRRRDGYLFQLLRIADAHLDRVENTTVYYLVLDVQESDCSVLSRKYWNDCEPPDSRRPSEIVIGQCKVIATRHSHESQDLRVIDFNCTTSSVSSALANTKDSPVLIDFFEDTERYRKQANKALEKYKEENDDFASFRVDRIERVARVRGGEGTGYFVDFSVRNCPRHHFPRHPNVFGFCRADLFYDVEALDLESPKNLVINCEVFDPQEHENINGVPPHLGHPFHWGGHERSSTTKPPFKPHGSRDHHHPHKPHEHGPPPPPDERDHSHGPPLPQGPPPLLPMSCSSCQHATFGTNGAQRHSHNNNSSDLHPHKHHSHEQHPHGHHPHAHHPHEHDTHRQHPHGHHPHGHHPHGHHPHGHHPHGHHPHCHDFQDYGPCDPPPHNQGHCCHGHGPPPGHLRRRGPGKGPRPFHCRQIGSVYRLPPLRKGEVLPLPEANFPSFPLPHHKHPLKPDNQPFPQSVSESCPGKFKSGFPQVSMFFTHTFPK
On to B6, for which the “Relative composition … Plasma” value in data set [1] is reported as 0.0 ± 0.0 % of total protein. For the same molecule, the “Identification status: CSF” value in data set [2] (symbol cells) is “*”.

B7: C4b-binding protein α chain: plasma protein bound to fibrils (protein, UniProt P04003 49-597, looked up)
C4b-binding protein alpha …: NCGPPPTLSFAAPMDITLTETRFKTGTTLKYTCLPGYVRSHSTQTLTCNSDGEWVYNTFCIYKRCRHPGELRNGQVEIKTDLSFGSQIEFSCSEGFFLIGSTTSRCEVQDRGVGWSHPLPQCEIVKCKPPPDIRNGRHSGEENFYAYGFSVTYSCDPRFSLLGHASISCTVENETIGVWRPSPPTCEKITCRKPDVSHGEMVSGFGPIYNYKDTIVFKCQKGFVLRGSSVIHCDADSKWNPSPPACEPNSCINLPDIPHASWETYPRPTKEDVYVVGTVLRYRCHPGYKPTTDEPTTVICQKNLRWTPYQGCEALCCPEPKLNNGEITQHRKSRPANHCVYFYGDEISFSCHETSRFSAICQGDGTWSPRTPSCGDICNFPPKIAHGHYKQSSSYSFFKEEIIYECDKGYILVGQAKLSCSYSHWSAPAPQCKALCRKPELVNGRLSVDKDQYVEPENVTIQCDSGYGVVGPQSITCSGNRTWYPEVPKCEWETPEGCEQVLTGKRLMQCLPNPEDVKMALEVYKLSLEIEQLELQRDSARQSTLDKEL
Turning to B7, the “Relative composition … Plasma” value in data set [1] was 0.1 ± 0.0 % of total protein.

B8: Ig γ -3 chain C region: plasma/CSF protein bound to fibrils (protein, UniProt P01860 1-446, looked up)
Immunoglobulin heavy constant …: ASTKGPSVFPLAPCSRSTSGGTAALGCLVKDYFPEPVTVSWNSGALTSGVHTFPAVLQSSGLYSLSSVVTVPSSSLGTQTYTCNVNHKPSNTKVDKRVELKTPLGDTTHTCPRCPEPKSCDTPPPCPRCPEPKSCDTPPPCPRCPEPKSCDTPPPCPRCPAPELLGGPSVFLFPPKPKDTLMISRTPEVTCVVVDVSHEDPEVQFKWYVDGVEVHNAKTKPREEQYNSTFRVVSVLTVLHQDWLNGKEYKCKVSNKALPAPIEKTISKTKGQPREPQVYTLPPSREEMTKNQVSLTCLVKGFYPSDIAVEWESSGQPENNYNTTPPMLDSDGSFFLYSKLTVDKSRWQQGNIFSCSVMHEALHNRFTQKSLSLSPELQLEESCAEAQDGELDGLWTTITIFITLFLLSVCYSATVTFFKVKWIFSSVVDLKQTIIPDYRNMIGQGA
Take B8: the “Relative composition … Plasma” value in data set [1] is recorded as 6.7 ± 0.2 % of total protein. Moreover, in data set [2], the “Relative composition … CSF” value is reported as 7.8 ± 0.3 % of total protein.
